Consider one substance from article PMC7285653.

Chains of the proteins cited; added tags and fusions are not shown. Lines headed by an entry give the natural chain unless they say otherwise; changes in a name come on top.
UniProt Q01650: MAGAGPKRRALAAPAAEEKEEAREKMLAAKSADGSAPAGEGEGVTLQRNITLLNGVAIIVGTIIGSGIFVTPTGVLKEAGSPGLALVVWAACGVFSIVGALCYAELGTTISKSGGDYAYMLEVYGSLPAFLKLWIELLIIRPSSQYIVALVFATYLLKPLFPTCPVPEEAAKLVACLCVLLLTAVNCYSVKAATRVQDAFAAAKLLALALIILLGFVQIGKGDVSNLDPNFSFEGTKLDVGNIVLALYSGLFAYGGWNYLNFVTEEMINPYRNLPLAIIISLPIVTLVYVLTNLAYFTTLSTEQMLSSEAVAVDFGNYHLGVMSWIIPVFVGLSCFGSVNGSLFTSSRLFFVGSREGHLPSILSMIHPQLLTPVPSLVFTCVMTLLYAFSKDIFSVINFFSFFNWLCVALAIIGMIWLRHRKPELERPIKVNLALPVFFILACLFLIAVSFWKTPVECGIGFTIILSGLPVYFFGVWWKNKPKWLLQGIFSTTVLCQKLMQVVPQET
UniProt P08195: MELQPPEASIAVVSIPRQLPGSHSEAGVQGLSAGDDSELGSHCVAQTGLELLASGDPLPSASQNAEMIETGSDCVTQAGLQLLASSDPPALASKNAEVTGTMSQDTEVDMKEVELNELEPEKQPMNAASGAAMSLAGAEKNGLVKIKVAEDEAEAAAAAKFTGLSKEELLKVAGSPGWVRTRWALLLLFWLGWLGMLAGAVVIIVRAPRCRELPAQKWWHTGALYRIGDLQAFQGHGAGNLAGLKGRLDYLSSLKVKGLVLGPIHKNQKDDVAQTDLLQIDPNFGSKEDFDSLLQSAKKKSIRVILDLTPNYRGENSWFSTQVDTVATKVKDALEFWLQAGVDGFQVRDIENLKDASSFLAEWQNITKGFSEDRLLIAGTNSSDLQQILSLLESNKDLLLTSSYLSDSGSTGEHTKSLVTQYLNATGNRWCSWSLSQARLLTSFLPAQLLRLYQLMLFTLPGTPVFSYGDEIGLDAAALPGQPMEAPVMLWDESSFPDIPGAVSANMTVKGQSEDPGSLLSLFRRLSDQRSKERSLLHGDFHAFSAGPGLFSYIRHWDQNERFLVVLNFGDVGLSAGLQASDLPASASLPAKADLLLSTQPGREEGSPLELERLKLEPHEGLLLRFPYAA

These are yes or no findings as the source states them, for the method shown.

The assay deals with LAT1–CD98hc heteromeric amino-acid transporter complex (not stated | human (endogenous in HEK293SG)) (UniProt Q01650+P08195). In words: cryo-EM structure; single-particle cryo-EM of detergent-solubilized (DDM/CHS/LMNG) LAT1–CD98hc purified by anti-V5 immunoaffinity and Superdex 200 in 100 mM Tris-HCl, 300 mM NaCl; grids at 2.3 mg/ml, Volta phase plate; ~12 Å map; two-body multibody refinement; both purified.

In the case of “LAT1–CD98hc heteromeric amino-acid transporter complex (from UniProt Q01650 1-507; P08195 1-529)”, the binding entry was “no binding”.
